Measurements: PubChem BioAssay AID493201 (National Center for Advancing Translational Sciences (NCATS), 2011)
The inconclusive results got no clear call from the source; some entries with a clear call stand among them for comparison. A potency beside an inconclusive call is a rough fit, not a confirmed value. Activity calls are given as the source filed them. Calls follow the shape of the dose curve; as a rule, active = well fitted activation curve with a large enough effect; inconclusive = small, poorly fitted or top-dose-only effect; inactive = no such curve, though single readings can be large or run the other way.
Potency is read from the fitted curve at half-maximal effect.

Assay: qHTS Assay for Identifying a Potential Treatment of Ataxia-Telangiectasia: Secondary assay (no NCS) hit validation;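 also: phosphorylated KAP1 signal as a proxy for ATM-like kinase activity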
Conditions: A-T patient fibroblasts, AlphaLISA, no DNA damage added, 90 min; series mostly up to 76.9 µM
Summary of the method: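 hTERT-immortalized A-T patient fibroblasts ([…]), 500 cells/well, exposed to compounds at up to 76.7 uM final without NCS at 37C. KAP-1 phosphorylation measured by AlphaLISA after lysis and 6 h detection at 25C.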
For N=c1ccn(Cc2ccc([N+](=O)[O-])cc2)cc1, the Potency was inconclusive: 29.2 µM [activator, partial curve, poor fit]. For O=C(c1cccc(F)c1)N1CCCC(C(=O)N2CCCCCC2)C1 (configuration not stated), the Potency was inconclusive: 2.6 µM [activator, full curve]. With Cc1cc(C)n2nc(C(=O)OCCOc3ccc(F)cc3)nc2n1 the Potency was active: 58.2 µM. In the case of Brc1c(C[n+]2ccccc2)nc2ccccn12, the Potency is reported as inconclusive: 4.63 µM [activator, full curve, poor fit]. For CC(Oc1ccccc1)C(=O)Nc1cccc(NC(=O)c2ccco2)c1 (configuration not stated), the Potency was “inactive”. For CCN1CCN(CC(=O)Nc2ccc(C(C)=O)cc2)CC1, the Potency was active: 26 µM. In the case of CC(C)(CN1CCN(c2ccccc2)CC1)NS(=O)(=O)c1ccccc1, the Potency is reported as “inactive”. For Cn1cc(/C=N/NC(N)=S)c2ccccc21, the Potency was inconclusive: 0.923 µM [activator, partial curve, poor fit]. With CN1C[C@@H]2C(c3ccccc3)C3(c4ccccc4)CC2(C3)[C@H]1c1ccccc1 (some centres not stated) the Potency was active: 20.7 µM. For CCOC(=O)C1=C(O)C(=O)N(Cc2ccccc2)C1, the Potency was inconclusive: 0.0328 µM [activator, full curve, poor fit]. With C=C1CCC[C@]2(C)C[C@H]3OC(=O)C(CN4CCCCC4CO)[C@H]3CC12 (some centres not stated) the Potency was inconclusive: 0.412 µM [activator, full curve, poor fit]. In the case of CCOC(=O)NC(C(Cl)(Cl)Cl)S(=O)(=O)c1ccccc1 (configuration not stated), the Potency is reported as inconclusive: 13 µM [activator, full curve, poor fit]. For CC(C)Nc1nc(Oc2ccc(=O)n(-c3ccccc3)n2)nc(N(C)C)n1, the Potency was “inactive”. For CCOC(=O)c1c(CSc2ccsc2)n(C)c2cc(Br)c(O)c(CN(C)C)c12, the Potency was active: 26 µM. In the case of C[C@H](NC(=O)OC(C)(C)C)C(=O)NCC1CCC(C(=O)N[C@@H](Cc2ccccc2)C(=O)O)CC1 (some centres not stated), the Potency is reported as inconclusive: 2.6 µM [activator, full curve, poor fit]. For CC1Cc2ccccc2N1C(=O)CSc1nnnn1-c1ccc2c(c1)OCCO2 (configuration not stated), the Potency was inconclusive: 0.0146 µM [activator, full curve, poor fit]. In the case of O=C(O)c1nccnc1C(=O)Nc1ccccc1-c1ccccc1, the Potency is reported as “inactive”. With O=C(Nc1cnn(C23CC4CC(CC(C4)C2)C3)c1)c1cnn2cccnc12 the Potency was inconclusive: 0.0368 µM [activator, full curve, poor fit]. In the case of COc1ccc(C(=O)N2CCCC2(C#N)c2ccccc2)cc1[N+](=O)[O-] (configuration not stated), the Potency is reported as inconclusive: 0.207 µM [activator, full curve, poor fit]. In the case of Clc1cccc(Cl)c1CSc1nnc(-c2ccncc2)s1, the Potency is reported as active: 41.2 µM. With CN(C)Cc1ccc(F)cc1Sc1cc(Cl)ccc1Cl the Potency was inconclusive: 0.328 µM [activator, full curve, poor fit]. With O=[N+]([O-])c1ccc(F)cc1F the Potency was active: 32.8 µM. With CC(C)CC(=O)Nc1c2c(nn1-c1cccc(Cl)c1)CS(=O)C2 (configuration not stated) the Potency was active: 58.2 µM. For CCN1CCN(c2oc(COc3ccc(Cl)cc3)nc2C#N)CC1, the Potency was inconclusive: 7.33 µM [activator, full curve, poor fit]. In the case of COc1ccc(CCNC(=O)C2CCN(S(=O)(=O)c3ccc(OC)c(OC)c3)CC2)cc1OC, the Potency is reported as inconclusive: 14.6 µM [activator, partial curve]. For CC(=O)Nc1ccc(S(=O)(=O)NCC2(N3CCOCC3)CCCCC2)cc1, the Potency was “inactive”. With CC(C)(C)C1CCC2(CC1)SCC(=O)N2c1ccccc1 (configuration not stated) the Potency was “inactive”.
